According to publication PMC9644627:
These are yes or no findings as the source states them, for the method shown. In cells and extracts the contact can be indirect. Some entries that bind do so weakly or less than the wild type.

Amino acid sequences for entries named in this document (tags omitted).
UniProt P67809: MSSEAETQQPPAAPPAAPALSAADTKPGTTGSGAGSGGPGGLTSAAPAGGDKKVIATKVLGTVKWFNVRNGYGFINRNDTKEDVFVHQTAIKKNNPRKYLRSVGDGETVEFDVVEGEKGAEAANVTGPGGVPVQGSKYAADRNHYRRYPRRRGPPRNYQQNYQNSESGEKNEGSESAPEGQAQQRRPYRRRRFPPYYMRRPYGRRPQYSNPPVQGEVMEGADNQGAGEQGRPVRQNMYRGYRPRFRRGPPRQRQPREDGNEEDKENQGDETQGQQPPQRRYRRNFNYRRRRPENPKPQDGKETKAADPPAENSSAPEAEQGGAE
UniProt Q15717: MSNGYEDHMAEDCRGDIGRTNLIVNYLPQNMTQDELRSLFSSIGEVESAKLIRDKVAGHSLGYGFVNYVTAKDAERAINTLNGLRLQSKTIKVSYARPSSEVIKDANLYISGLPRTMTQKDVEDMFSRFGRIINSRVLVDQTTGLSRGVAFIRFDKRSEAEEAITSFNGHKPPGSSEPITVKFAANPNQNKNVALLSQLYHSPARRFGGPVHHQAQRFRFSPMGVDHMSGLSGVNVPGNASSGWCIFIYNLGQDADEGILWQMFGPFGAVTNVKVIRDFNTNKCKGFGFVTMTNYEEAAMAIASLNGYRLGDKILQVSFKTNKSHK

Target: YBX1 (UniProt P67809)
Experiment: co-IP; CoIP assay of ELAVL1 and YBX1; cells, antibodies and which protein was precipitated not told

binding: binds
Substance: ELAVL1 (from UniProt Q15717 1-326)
